Source: paper PMC12444467
No constants are given. Whether binding was seen depends on the method and setting. For part of these data: Binding seen in cells or lysates may run through a third protein. Some results given as binding are weak or reduced against the parent protein; the word gives no strength. Each block holds one substance with its values, some of them ahead of it.

Protein sequences, listed by entry. Tags and fused reporters are not part of them. Lines headed by an entry give the natural chain unless they say otherwise; changes in a name come on top. Chains listed by the source or under a name are the forms on record and can include a tag or linker.
UniProt O60331: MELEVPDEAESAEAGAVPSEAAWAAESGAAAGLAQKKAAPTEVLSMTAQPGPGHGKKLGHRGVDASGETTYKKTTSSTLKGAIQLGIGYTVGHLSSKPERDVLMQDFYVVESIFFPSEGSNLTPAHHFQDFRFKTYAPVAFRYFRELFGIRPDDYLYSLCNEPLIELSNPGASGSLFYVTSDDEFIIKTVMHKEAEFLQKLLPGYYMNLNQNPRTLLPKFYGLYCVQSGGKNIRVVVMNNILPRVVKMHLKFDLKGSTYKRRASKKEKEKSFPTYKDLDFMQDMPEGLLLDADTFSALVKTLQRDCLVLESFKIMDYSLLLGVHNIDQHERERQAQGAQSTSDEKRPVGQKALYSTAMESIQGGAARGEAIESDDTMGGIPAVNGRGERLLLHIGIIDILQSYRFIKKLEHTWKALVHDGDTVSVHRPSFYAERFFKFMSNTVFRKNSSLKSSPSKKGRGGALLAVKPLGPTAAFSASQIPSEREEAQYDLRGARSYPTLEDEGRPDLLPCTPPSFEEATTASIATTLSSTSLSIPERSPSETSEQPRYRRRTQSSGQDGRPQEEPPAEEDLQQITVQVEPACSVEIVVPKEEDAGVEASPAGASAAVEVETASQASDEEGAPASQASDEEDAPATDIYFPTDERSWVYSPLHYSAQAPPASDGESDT
HA-tagged PIPKIγi5 truncation mutant PIPKIγi5_675 (O60331-3, form named): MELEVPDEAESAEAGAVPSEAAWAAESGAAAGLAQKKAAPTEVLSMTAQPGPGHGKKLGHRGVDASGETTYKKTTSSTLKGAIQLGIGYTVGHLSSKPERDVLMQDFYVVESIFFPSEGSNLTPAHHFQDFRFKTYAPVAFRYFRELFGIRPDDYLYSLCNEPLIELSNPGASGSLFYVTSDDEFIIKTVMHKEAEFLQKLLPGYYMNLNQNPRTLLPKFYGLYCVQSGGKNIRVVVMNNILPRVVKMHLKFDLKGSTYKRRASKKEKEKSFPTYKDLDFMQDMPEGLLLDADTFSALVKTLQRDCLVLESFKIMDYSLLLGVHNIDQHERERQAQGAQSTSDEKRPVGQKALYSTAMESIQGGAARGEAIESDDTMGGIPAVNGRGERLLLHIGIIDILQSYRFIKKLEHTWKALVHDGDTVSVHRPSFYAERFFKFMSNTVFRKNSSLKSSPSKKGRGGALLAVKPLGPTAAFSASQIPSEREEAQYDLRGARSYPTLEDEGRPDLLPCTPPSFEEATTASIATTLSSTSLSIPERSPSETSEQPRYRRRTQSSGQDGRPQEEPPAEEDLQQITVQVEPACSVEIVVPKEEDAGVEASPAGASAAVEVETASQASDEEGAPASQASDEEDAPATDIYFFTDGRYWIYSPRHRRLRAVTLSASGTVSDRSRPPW
purified recombinant HA-PIPKIγi5 (O60331-3, form named): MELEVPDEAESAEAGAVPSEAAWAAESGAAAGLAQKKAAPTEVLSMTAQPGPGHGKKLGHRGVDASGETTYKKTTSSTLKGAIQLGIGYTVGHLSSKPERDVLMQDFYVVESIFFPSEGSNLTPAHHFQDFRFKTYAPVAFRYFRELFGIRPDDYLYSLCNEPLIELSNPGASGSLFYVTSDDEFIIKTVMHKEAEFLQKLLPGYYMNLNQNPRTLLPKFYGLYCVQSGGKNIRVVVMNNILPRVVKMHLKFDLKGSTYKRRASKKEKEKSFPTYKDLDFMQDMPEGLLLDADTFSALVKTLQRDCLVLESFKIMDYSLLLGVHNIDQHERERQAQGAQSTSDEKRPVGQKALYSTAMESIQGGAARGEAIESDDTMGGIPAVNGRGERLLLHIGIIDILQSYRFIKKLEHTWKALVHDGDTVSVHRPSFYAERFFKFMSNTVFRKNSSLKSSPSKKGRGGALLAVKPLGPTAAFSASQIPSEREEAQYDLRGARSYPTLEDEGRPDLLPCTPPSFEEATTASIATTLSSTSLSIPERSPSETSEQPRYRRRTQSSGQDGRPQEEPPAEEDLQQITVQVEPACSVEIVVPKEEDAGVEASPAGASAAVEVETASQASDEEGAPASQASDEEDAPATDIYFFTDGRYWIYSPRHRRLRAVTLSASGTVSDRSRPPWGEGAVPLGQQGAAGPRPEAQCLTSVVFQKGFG
UniProt P46937: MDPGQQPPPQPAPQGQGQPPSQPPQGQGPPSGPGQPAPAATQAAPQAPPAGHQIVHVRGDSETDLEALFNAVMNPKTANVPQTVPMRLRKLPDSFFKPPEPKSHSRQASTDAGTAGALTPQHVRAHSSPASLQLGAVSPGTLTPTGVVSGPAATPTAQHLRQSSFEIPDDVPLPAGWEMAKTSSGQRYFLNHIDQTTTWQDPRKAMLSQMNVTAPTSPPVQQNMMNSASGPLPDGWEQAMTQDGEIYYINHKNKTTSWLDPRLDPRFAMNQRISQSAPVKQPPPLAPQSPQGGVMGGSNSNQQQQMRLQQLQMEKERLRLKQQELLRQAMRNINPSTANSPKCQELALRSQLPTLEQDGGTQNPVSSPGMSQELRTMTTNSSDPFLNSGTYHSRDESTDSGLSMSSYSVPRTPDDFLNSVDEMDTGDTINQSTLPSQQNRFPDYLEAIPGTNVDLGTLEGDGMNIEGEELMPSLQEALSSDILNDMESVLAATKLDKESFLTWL

What was measured:
[1] = molecular target: HA-tagged PIPKIγi5 truncation mutant PIPKIγi5_675 (human) (UniProt O60331); experiment: co-IP; two tagged proteins coexpressed in cells (HEK-293 where stated); immunoprecipitation with HA or Myc antibody and protein G-Sepharose, 4 h at 4 °C; lysis in 25 mM Hepes pH 7.2, 150 mM NaCl, 0.25% NP-40, 1 mM MgCl2; Western blot
[2] = molecular target: Myc-tagged PIPKIγi2 (human) (UniProt O60331); experiment: as above
[3] = molecular target: HA-tagged PIPKIγi5 (type I gamma phosphatidylinositol phosphate kinase i5) (human) (UniProt O60331); experiment: as above
[4] = molecular target: Myc-tagged PIPKIγi5 (human) (UniProt O60331); experiment: as above
[5] = molecular target: endogenous YAP1 (human (endogenous in CAL27)) (UniProt P46937); experiment: co-IP; endogenous YAP1 immunoprecipitated with YAP1 antibody from CAL27 cell lysates; endogenous PIPKIγi5 detected by Western blot
[6] = molecular target: purified recombinant HA-PIPKIγi5 (human) (UniProt O60331); experiment: solid-phase binding assay; GST-14-3-3 or HA-PIPKIγi5 (1 μg) coated on MaxiSorp 96-well plates, blocked with 1% fatty acid-free BSA in PBS, with or without phosphoinositide (PI4,5P2; control PI3,5P2) 30 min, then 1 μg FLAG-YAP1 1 h at room temperature; bound proteins eluted and blotted; both purified
[7] = molecular target: purified recombinant FLAG-YAP1 (YAP1 human recombinant protein, OriGene) (human) (UniProt P46937); experiment: pull-down; in vitro binding assay: 1 μg FLAG-YAP1 and 1 μg HA-PIPKIγi5 mixed in 20 mM Tris-HCl pH 7.5, 0.3 M NaCl, 1 mM DTT, 4 °C 2 h, then anti-FLAG magnetic beads 4 °C 6 h; Western blot; both purified

Substance: FLAG-tagged YAP1 (Yes-associated protein 1) (from UniProt P46937 1-504)
- binding [1]: binds
- binding [2]: binds weakly
- binding [3]: binds
- binding [4]: binds

Substance: HA-YAP1-C (264-504) (from UniProt P46937 264-504) (domain or fragment)
- binding [4]: binds

Substance: HA-YAP1-N (1-263) (from UniProt P46937 1-263) (domain or fragment)
- binding [4]: no binding

Substance: endogenous PIPKIγi5 (from UniProt O60331-3 1-707) (enzyme)
- binding [5]: binds

Second part, the substance after the results:

- binding [6]: binds
Substance: purified recombinant FLAG-YAP1 (YAP1 human recombinant protein, OriGene) (from UniProt P46937 1-504)

- binding [7]: binds
Substance: purified recombinant HA-PIPKIγi5 (from UniProt O60331-3 1-707) (enzyme)
